Reference: paper PMC6700064
No constants are given. Whether binding was seen depends on the method and setting. In cells and extracts the contact can be indirect. A yes stands for co-enrichment or nearness to the bait. Other partners may have been found.

By UniProt entry, the sequences of proteins in these tests, tags left out.
UniProt Q9H1P3: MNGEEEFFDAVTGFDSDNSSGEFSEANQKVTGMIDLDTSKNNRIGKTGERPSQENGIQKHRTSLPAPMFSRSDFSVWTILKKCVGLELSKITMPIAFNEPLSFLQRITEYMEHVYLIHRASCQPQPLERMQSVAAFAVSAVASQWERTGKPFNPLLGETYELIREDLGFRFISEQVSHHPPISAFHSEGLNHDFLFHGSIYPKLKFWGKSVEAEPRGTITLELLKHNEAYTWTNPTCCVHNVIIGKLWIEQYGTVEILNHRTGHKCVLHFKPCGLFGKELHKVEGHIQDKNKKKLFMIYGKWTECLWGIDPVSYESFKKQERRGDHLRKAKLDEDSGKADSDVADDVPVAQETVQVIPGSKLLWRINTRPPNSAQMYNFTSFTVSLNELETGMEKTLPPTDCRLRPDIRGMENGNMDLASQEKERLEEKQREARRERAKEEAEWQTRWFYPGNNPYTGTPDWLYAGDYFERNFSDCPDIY
UniProt P31939: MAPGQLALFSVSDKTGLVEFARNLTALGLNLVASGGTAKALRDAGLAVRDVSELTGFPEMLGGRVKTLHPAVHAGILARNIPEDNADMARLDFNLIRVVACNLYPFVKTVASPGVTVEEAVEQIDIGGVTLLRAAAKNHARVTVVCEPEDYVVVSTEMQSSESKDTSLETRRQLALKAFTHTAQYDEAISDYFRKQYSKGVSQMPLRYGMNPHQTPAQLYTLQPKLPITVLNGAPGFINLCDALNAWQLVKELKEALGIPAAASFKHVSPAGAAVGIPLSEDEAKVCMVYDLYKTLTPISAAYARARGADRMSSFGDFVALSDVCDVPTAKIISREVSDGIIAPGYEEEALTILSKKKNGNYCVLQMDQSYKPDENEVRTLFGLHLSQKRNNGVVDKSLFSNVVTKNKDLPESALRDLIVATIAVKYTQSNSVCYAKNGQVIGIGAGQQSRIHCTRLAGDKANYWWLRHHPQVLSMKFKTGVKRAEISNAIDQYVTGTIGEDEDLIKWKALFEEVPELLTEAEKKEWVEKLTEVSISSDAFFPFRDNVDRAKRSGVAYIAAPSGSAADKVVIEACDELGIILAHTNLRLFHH

Molecular target: Flag-tagged OSBPL2 (oxysterol-binding protein like 2) (UniProt Q9H1P3)
Assay: affinity purification with mass spectrometry; Flag-tagged OSBPL2 expressed in HEK293Ta cells; complexes pulled down with anti-Flag magnetic beads; protein bands subjected to LC-MS/MS

binding: binds
Substance: ATIC found by mass spectrometry in Flag-OSBPL2 complexes from HEK293Ta cells (from UniProt P31939 1-592) (enzyme)
